Results on one molecule are retold here after paper PMC9066215.

By UniProt entry, the sequences of proteins in these tests, tags left out.
UniProt P06493: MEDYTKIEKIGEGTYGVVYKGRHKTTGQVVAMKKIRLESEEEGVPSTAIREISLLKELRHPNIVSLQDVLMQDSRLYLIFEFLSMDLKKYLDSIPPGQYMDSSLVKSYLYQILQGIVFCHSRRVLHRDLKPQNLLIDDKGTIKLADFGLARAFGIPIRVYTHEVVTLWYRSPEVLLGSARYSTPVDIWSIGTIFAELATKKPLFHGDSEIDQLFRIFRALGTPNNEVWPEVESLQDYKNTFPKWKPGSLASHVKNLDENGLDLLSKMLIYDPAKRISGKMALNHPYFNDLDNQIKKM

The target in the assay is CDK1 (human) (UniProt P06493). Kind of assay: co-IP; cells lysed in ice-cold IP lysate; 1.2 mg total protein incubated with antibody overnight, then with 20 uL beads for 1-2 h at 4°C; Western blot; the precipitating antibody and the cell line are not stated.

Results are given in words; binding and its absence hold for the method and conditions named. In cells and extracts the contact can be indirect. Some binding calls cover weakened binding; strength is not graded here.

B1: cell division cycle associated 8 (CDCA8) (protein, UniProt Q53HL2 1-280)
chain: MAPRKGSSRVAKTNSLRRRKLASFLKDFDREVEIRIKQIESDRQNLLKEVDNLYNIEILRLPKALREMNWLDYFALGGNKQALEEAATADLDITEINKLTAEAIQTPLKSAKTRKVIQVDEMIVEEEEEEENERKNLQTARVKRCPPSKKRTQSIQGKGKGKRSSRANTVTPAVGRLEVSMVKPTPGLTPRFDSRVFKTPGLRTPAAGERIYNISGNGSPLADSKEIFLTVPVGGGESLRLLASDLQRHSIAQLDPEALGNIKKLSNRLAQICSSIRTHK
With B1, the binding result is recorded as “binds”.
